Experimental data taken from PubChem BioAssay AID2685 (National Center for Advancing Translational Sciences (NCATS), 2010).
This is one part of the list. Shown are side measurements of this screen, not its main read-out; they come without a call. The list favours compounds with an active or inconclusive main result. Potencies come from curve fits of mixed quality, noted in brackets.

Test: qHTS Assay for Lipid Storage Modulators in Drosophila S3 Cells;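 on cell number change: cells counted by Cell Tracker Red CMTPX staining in the red channel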
Conditions: BODIPY lipid droplet fluorescence, 18-24 h; for cell number change: measured here: cell count max response, cells fed with added oleic acid
In short: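 Drosophila S3 cells got compounds at several concentrations plus oleic acid (400 uM solution). Laser-scanning cytometry with 488 nm excitation read lipid droplets at 500-530 nm and cells at 575-640 nm. Percent activity was relative to 20 uM Triacsin C.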

[1] = measured here: cell number channel AC50, cells fed with added oleic acid
[2] = measured here: lipid fluorescence (Fed channel) AC50, cells fed with added oleic acid

Structure (SMILES)	cell number change	AC50 [1]	AC50 [2]
C#CC(CC)(CC)NC(=O)/C=C/C(=O)O	-57.1%	29.1 µM [falling, single point]	29.1 µM [falling, single point]
COc1ccc(CNCC2COc3ccccc3O2)cc1 (centres undefined)	17.7%	–	29.1 µM [falling, single point]
CCc1cccc(OC2OC(CO)C(O)C(O)C2NC(C)=O)c1 (centres undefined)	-46.8%	5.17 µM [falling, full curve, poor fit]	1.16 µM [falling, full curve]
Cc1ccc(C(=O)N(Cc2nc(-c3ccc(C)cc3)no2)C(C)C)cc1	-5.01%	–	0.164 µM [falling, full curve, poor fit]
NS(=O)(=O)c1ccc(CCNC(=O)C2CCCCC2)cc1	-8.28%	6.51 µM [falling, single point]	3.26 µM [falling, full curve]
CCN(CC)C(=O)C1CCCN(C(=O)c2cc(COc3ccc4ncccc4c3)on2)C1 (centres undefined)	-25.8%	–	6.51 µM [rising, single point]
CCOC(=O)c1c(/N=C/C2C(=O)CCCC2=O)sc(C)c1C	10.5%	–	25.9 µM [rising, single point]
CCn1c(SCC(=O)Nc2ccc(Br)cn2)nnc1C1CC1	1.9%	–	1.64 µM [rising, partial curve, poor fit]
CC(C(=O)NC1CCCC1)N1CCN(S(=O)(=O)c2ccc(C(C)(C)C)cc2)CC1 (centres undefined)	6.55%	–	4.61 µM [rising, partial curve]
O=C(CCSc1nc(-c2ccco2)cc(C(F)(F)F)n1)N1CCN(c2ccccc2)CC1	121%	9.2 µM [rising, partial curve]	11.6 µM [rising, partial curve]
Cc1ccc[n+](CC(=O)c2ccc(Br)cc2)c1	–	–	6.51 µM [falling, single point]
CCOC(=O)c1nc(NCc2cccnc2)c2ccccc2n1	16%	1.84 µM [rising, single point]	4.11 µM [rising, single point]
COC(=O)C1CCN(C(=O)c2cc(-c3ccc(Cl)s3)nc3ccccc23)CC1	-32.6%	0.00461 µM [falling, full curve, poor fit]	7.31 µM [falling, partial curve]
CC(=O)Oc1ccc(/C=N/NC(=O)c2ccc(N(C)S(=O)(=O)c3ccccc3)cc2)cc1	-15.8%	–	–
CC(C)CN1C(Nc2ccccc2)=NC[C@@H]1C	26.6%	–	6.51 µM [rising, single point]
On1c(-c2ccc(Cl)cc2)nc2ccccc21	-28.2%	–	0.13 µM [rising, full curve, poor fit]
Nc1c(Cl)c(Cl)nc(C(=O)OCC(=O)NCc2ccccc2)c1Cl	-28.2%	–	3.26 µM [falling, partial curve, poor fit]
CC1(C)OC(c2ccccc2)=C/C(=C/C=N/NC(=O)c2ccncc2)O1	-8.37%	–	–
COCc1ccc(C(=O)NC2CC(C)(C)Cc3c2cnn3-c2ccc(OC)cc2)o1 (centres undefined)	-14.7%	–	29.1 µM [rising, single point]
Cn1cc(CN2CCN(Cc3ccc4c(c3)OCO4)CC2)c(-c2ccccc2F)n1	16.6%	–	0.13 µM [rising, partial curve, poor fit]

Structure (SMILES)	cell number change	AC50 [1]	AC50 [2]
CC(C)(CCO)Nc1ncnc2onc(-c3ccc(F)cc3)c12	21.1%	–	–
Cc1[nH]c2ccc(C(C)C)cc2c1CC(=O)O	-16%	–	18.4 µM [falling, single point]
COc1ccc(OC)c(S(=O)(=O)N/N=C(/C)c2ccc3c(c2)OCO3)c1	-19.8%	–	8.2 µM [rising, partial curve]
CC(=O)Nc1cccc(NC(=O)CSc2nc3c(c(=O)n(C)c(=O)n3C)n2C)c1	-5.13%	–	–
COc1ccc(C(=O)NCC(=O)OCc2ccc(Cl)cc2Cl)cc1OC	13.4%	–	1.46 µM [rising, single point]
CCC1(CC)Cc2ccccc2-c2nc(NCCO)[nH]c(=O)c21	-48.8%	29.1 µM [falling, single point]	29.1 µM [falling, single point]
Cc1nnc2c(NC(C)C)nc3ccccc3n12	34.7%	6.51 µM [rising, partial curve]	14.6 µM [rising, partial curve, poor fit]
Nc1cc(Cl)nc(N/N=C/c2ccc([N+](=O)[O-])cc2)n1	14.2%	–	1.03 µM [rising, full curve, poor fit]
CCOCC(=O)Nc1ccc(-c2cn3cccnc3n2)cc1	-143%	29.1 µM [falling, single point]	29.1 µM [falling, single point]
CC(NC(=S)NCc1ccccc1)C12CC3CC(CC(C3)C1)C2 (centres undefined)	-11.2%	–	16.4 µM [rising, single point]
CC(C)(O)C#Cc1ccc([C@@H]2C[C@H]3CN(c4ccccc4)C(=O)[C@]34CCCN24)s1	-5.43%	–	0.517 µM [falling, single point]
CCn1cc(C(=O)NCc2ccccc2)c(=O)c2cc(F)c(N3CCN(C(=O)c4ccco4)CC3)cc21	-3.2%	–	0.164 µM [falling, full curve, poor fit]
COc1ccc(CCNC(=O)COc2ccc([N+](=O)[O-])cc2)cc1	100%	3.66 µM [falling, partial curve]	–
Cc1ccc(OCC(=O)N2CCN(C(=O)c3ccco3)CC2)cc1	-40.6%	4.11 µM [falling, full curve, poor fit]	3.26 µM [falling, full curve]
O=C(Nc1ccc2c(c1)OCO2)C1Cc2ccccc2CN1S(=O)(=O)c1cccs1 (centres undefined)	17.7%	–	2.06 µM [rising, full curve]
CC(=O)C1=C(O)C(=O)N(CCc2ccccc2)C1c1ccccc1[N+](=O)[O-] (centres undefined)	–	0.082 µM [falling, full curve, poor fit]	6.51 µM [falling, single point]
CCOC(=O)c1ccc(S(=O)(=O)NCC(c2ccc(N(C)C)cc2)c2c[nH]c3ccccc23)cc1 (centres undefined)	-50.8%	16.4 µM [falling, partial curve]	11.6 µM [falling, partial curve, poor fit]
CC1CCc2sc3ncnc(N4CCN(CCO)CC4)c3c2C1 (centres undefined)	5.84%	–	–
O=C(O)c1cccc(NC(=S)NC(=O)c2ccc3ccccc3c2)c1	-1.51%	–	10.3 µM [falling, partial curve, poor fit]
CN1CCN(C(=O)/C(=C\c2ccc3c(c2)OCO3)NC(=O)c2cccs2)CC1	-55.5%	8.2 µM [falling, partial curve]	2.91 µM [falling, partial curve]

Structure (SMILES)	cell number change	AC50 [1]	AC50 [2]
N#Cc1ccc(NC(=O)Nc2cccc(C#N)c2)cc1	-60.6%	29.1 µM [falling, partial curve]	–
CC(C)C(C(=O)Nc1ncn[nH]1)N1C(=O)c2ccccc2C1=O (centres undefined)	75.2%	–	29.1 µM [rising, single point]
CCOC(=O)c1ccccc1NC(=O)COc1ccccc1	5.89%	–	–
COc1ccc(NC(=O)Cn2nc(C(=O)O)c3ccccc3c2=O)cc1OC	-34.3%	–	–
Cc1ccc(NC(=O)CCN2C(=O)C3CCCCC3C2=O)cc1[N+](=O)[O-] (centres undefined)	–	–	29.1 µM [rising, single point]
COCCNCC(=O)NCC12CC3CC(CC(C3)C1)C2	2.6%	–	–
CCOC(=O)Cn1nc(C)cc1NC(=O)c1ccncc1	123%	1.3 µM [rising, full curve]	6.51 µM [rising, full curve]
CCOc1ccc(-c2nc(C#N)c(NCC3CCCO3)o2)cc1 (centres undefined)	6.2%	6.51 µM [rising, single point]	8.2 µM [rising, partial curve]
O=C(COC(=O)C1CC1)Nc1ccc2[nH]c(=O)[nH]c2c1	-32.3%	–	–
COc1ccc(/C=C(/NC(=O)c2ccccc2)C(=O)N/N=C/c2ccc3c(c2)OCO3)cc1OC	-24.5%	–	1.3 µM [falling, partial curve]
N/C(Cc1ccc([N+](=O)[O-])cc1)=N\OC(=O)c1ccco1	17.5%	–	18.4 µM [rising, single point]
O=C1C(CSCc2ccccc2)NC(=S)N1c1ccccc1 (centres undefined)	12.6%	1.84 µM [rising, partial curve]	–
CCC(=O)N/N=c1/sc2ccccc2n1C	-50.1%	18.4 µM [falling, single point]	23.1 µM [falling, single point]
CN(C)CCCNc1oc(-c2ccccc2Cl)nc1S(=O)(=O)c1ccccc1	-11.4%	–	1.84 µM [falling, partial curve, poor fit]
O=C(COC(=O)c1ccc(-n2cnnn2)cc1)Nc1cc(Cl)ccc1F	-33.6%	25.9 µM [falling, partial curve]	–
Cc1noc(C)c1CSc1nnc(-c2ccncc2)n1-c1cccc(Cl)c1C	–	0.731 µM [rising, single point]	0.651 µM [rising, single point]
Cc1ccc(OCCCn2c(CO)nc3ccccc32)cc1	-15.4%	–	–
O=S(=O)(c1ccc(-n2cnnn2)cc1)N(C1CCCCC1)C1CCCCC1	-27.3%	–	0.116 µM [falling, full curve, poor fit]
